Record: PubChem BioAssay AID1053208 (Peter MacCallum Cancer Centre, 2014)

Assay: 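Find knock-downs that sensitise mouse osteosarcoma cells to doxorubicin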 (primary screen)
Cells: mouse osteosarcoma cells, early-passage culture from an engineered mouse model of fibroblastic bone tumour
Knock-down reagent: siRNA pool against mouse genes, 40 nM
Timing: about 120 h (48 h before drug, then 72 h with drug)
Treatment: doxorubicin 100 nM for 72 h, roughly 30-40% inhibitory dose
Detection: 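Luminescent ATP signal taken as viability with or without 100 nM doxorubicin for 72 h; mean of two wells set against non-targeting siRNA and turned into robust z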
Direction: viability z-score with doxorubicin: higher = more viable cells under doxorubicin; viability z-score without drug: higher = more viable cells with knock-down alone
Call rule: 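Called active if knock-down leaves viability unchanged without drug (z within -2 to 2) but lowers it with doxorubicin (z at or under -2)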
This is a random part of about 17,000 reagents tested. Over the whole deposit, 788 (4.7%) were called active. 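Calls rest on z-score classes alone; an extra cut-off of viability at most 70% of control was not applied to them.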 Unmarked entries are inactive. Not all columns of the deposit are shown. Reagent sequences are not shown.

{"target":"Ubxn8 (UBX domain protein 8)","combined z-score class":"no change with or without drug","viability z-score with doxorubicin":0.45,"viability z-score without drug":-1.01}
{"target":"Atl1 (atlastin GTPase 1)","combined z-score class":"no change with or without drug","viability z-score with doxorubicin":1.35,"viability z-score without drug":0.51}
{"target":"A030003K21Rik (RIKEN cDNA A030003K21 gene)","combined z-score class":"no change with or without drug","viability z-score with doxorubicin":0.45,"viability z-score without drug":0.84}
{"target":"Ahcyl2 (S-adenosylhomocysteine hydrolase-like 2)","combined z-score class":"no change with or without drug","viability z-score with doxorubicin":0.22,"viability z-score without drug":-0.17}
{"target":"Ube3c (ubiquitin protein ligase E3C)","combined z-score class":"no change with or without drug","viability z-score with doxorubicin":0.9,"viability z-score without drug":0.51}
{"target":"Or1n2 (olfactory receptor family 1 subfamily N member 2)","combined z-score class":"no change with or without drug","viability z-score with doxorubicin":-1.12,"viability z-score without drug":-1.01}
{"target":"Med6 (mediator complex subunit 6)","combined z-score class":"no change with or without drug","viability z-score with doxorubicin":0.56,"viability z-score without drug":0.17}
{"target":"Abhd18 (abhydrolase domain containing 18)","combined z-score class":"no change with or without drug","viability z-score with doxorubicin":1.01,"viability z-score without drug":0.51}
{"target":"Acvrl1 (activin A receptor, type II-like 1)","combined z-score class":"high cell count without drug only","viability z-score with doxorubicin":-0.45,"viability z-score without drug":2.7}
{"target":"Ppic (peptidylprolyl isomerase C)","combined z-score class":"no change with or without drug","viability z-score with doxorubicin":0.56,"viability z-score without drug":-1.18}
{"target":"Dct (dopachrome tautomerase)","combined z-score class":"no change with or without drug","viability z-score with doxorubicin":1.8,"viability z-score without drug":1.52}
{"target":"B4galt4","combined z-score class":"no change with or without drug","viability z-score with doxorubicin":1.01,"viability z-score without drug":0.51}
{"target":"Dnajc30 (DnaJ heat shock protein family (Hsp40) member C30)","combined z-score class":"no change with or without drug","viability z-score with doxorubicin":0.56,"viability z-score without drug":0.51}
{"target":"Mef2a (myocyte enhancer factor 2A)","combined z-score class":"no change with or without drug","viability z-score with doxorubicin":-0.56,"viability z-score without drug":1.69}

2 entries from above, ordered by “viability z-score without drug”, low to high.
{"target":"Med6 (mediator complex subunit 6)","combined z-score class":"no change with or without drug","viability z-score with doxorubicin":0.56,"viability z-score without drug":0.17}
{"target":"Abhd18 (abhydrolase domain containing 18)","combined z-score class":"no change with or without drug","viability z-score with doxorubicin":1.01,"viability z-score without drug":0.51}

More entries follow:
{"target":"Cptp (ceramide-1-phosphate transfer protein)","combined z-score class":"no change with or without drug","viability z-score with doxorubicin":-0.9,"viability z-score without drug":-0.51}
{"target":"Marchf10 (membrane associated ring-CH-type finger 10)","combined z-score class":"high cell count without drug only","viability z-score with doxorubicin":-0.45,"viability z-score without drug":2.19}
{"target":"Dlg1 (discs large MAGUK scaffold protein 1)","combined z-score class":"no change with or without drug","viability z-score with doxorubicin":1.57,"viability z-score without drug":0}
{"target":"Magea2 (MAGE family member A2)","combined z-score class":"no change with or without drug","viability z-score with doxorubicin":-1.12,"viability z-score without drug":-0.51}
{"target":"Acp7 (acid phosphatase 7, tartrate resistant)","combined z-score class":"no change with or without drug","viability z-score with doxorubicin":-0.67,"viability z-score without drug":-0.51}
{"target":"Fzd9 (frizzled class receptor 9)","combined z-score class":"no change with or without drug","viability z-score with doxorubicin":0,"viability z-score without drug":-1.01}
{"target":"Eef1d (eukaryotic translation elongation factor 1 delta)","combined z-score class":"low cell count without drug only","viability z-score with doxorubicin":-0.9,"viability z-score without drug":-2.02}
{"target":"C8b (complement component 8, beta polypeptide)","combined z-score class":"no change with or without drug","viability z-score with doxorubicin":-0.22,"viability z-score without drug":0.17}
{"target":"Syf2 (SYF2 homolog, RNA splicing factor (S. cerevisiae))","combined z-score class":"no change with or without drug","viability z-score with doxorubicin":-0.9,"viability z-score without drug":0}
{"target":"Pan2 (PAN2 poly(A) specific ribonuclease subunit)","combined z-score class":"no change with or without drug","viability z-score with doxorubicin":0,"viability z-score without drug":0.67}
{"target":"Gdap2 (ganglioside-induced differentiation-associated-protein 2)","combined z-score class":"no change with or without drug","viability z-score with doxorubicin":0.56,"viability z-score without drug":1.52}
{"target":"Kdelr1","combined z-score class":"low cell count with doxorubicin only (active)","viability z-score with doxorubicin":-2.25,"viability z-score without drug":-0.51}
{"target":"Qrfpr (pyroglutamylated RFamide peptide receptor)","combined z-score class":"no change with or without drug","viability z-score with doxorubicin":1.01,"viability z-score without drug":-0.84}
{"target":"Or7g25 (olfactory receptor family 7 subfamily G member 25)","combined z-score class":"low cell count with doxorubicin only (active)","viability z-score with doxorubicin":-2.25,"viability z-score without drug":-0.17}
